Data taken from the supplement of paper PMC10849652.
This is one part of the list.

Amino acid sequences for entries named in this document (tags omitted). A change or cut given only in a name is not applied to a line headed by its entry.
UniProt Q86YV9: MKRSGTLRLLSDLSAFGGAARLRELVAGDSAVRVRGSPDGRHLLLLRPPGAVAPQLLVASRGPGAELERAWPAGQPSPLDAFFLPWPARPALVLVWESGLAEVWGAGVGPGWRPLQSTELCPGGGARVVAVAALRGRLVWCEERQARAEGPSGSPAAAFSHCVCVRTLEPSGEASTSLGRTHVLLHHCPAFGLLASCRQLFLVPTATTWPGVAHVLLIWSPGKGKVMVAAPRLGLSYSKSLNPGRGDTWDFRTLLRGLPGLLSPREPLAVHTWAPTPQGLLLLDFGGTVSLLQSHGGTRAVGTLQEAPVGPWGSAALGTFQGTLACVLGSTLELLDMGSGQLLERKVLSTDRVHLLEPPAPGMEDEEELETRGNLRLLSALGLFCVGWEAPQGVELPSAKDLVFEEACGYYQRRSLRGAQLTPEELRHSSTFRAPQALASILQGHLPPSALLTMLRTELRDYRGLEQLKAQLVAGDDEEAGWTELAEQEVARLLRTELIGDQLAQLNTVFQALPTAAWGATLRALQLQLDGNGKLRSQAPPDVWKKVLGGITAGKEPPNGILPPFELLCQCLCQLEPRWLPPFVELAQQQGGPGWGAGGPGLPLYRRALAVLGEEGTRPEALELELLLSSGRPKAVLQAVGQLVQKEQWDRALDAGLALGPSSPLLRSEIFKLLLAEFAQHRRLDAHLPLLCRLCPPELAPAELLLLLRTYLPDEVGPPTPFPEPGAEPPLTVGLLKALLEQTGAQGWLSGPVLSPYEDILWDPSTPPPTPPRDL
UniProt Q15651: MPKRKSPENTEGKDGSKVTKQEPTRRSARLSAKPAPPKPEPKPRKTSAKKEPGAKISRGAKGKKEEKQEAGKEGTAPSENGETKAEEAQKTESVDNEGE
UniProt Q9NRZ9: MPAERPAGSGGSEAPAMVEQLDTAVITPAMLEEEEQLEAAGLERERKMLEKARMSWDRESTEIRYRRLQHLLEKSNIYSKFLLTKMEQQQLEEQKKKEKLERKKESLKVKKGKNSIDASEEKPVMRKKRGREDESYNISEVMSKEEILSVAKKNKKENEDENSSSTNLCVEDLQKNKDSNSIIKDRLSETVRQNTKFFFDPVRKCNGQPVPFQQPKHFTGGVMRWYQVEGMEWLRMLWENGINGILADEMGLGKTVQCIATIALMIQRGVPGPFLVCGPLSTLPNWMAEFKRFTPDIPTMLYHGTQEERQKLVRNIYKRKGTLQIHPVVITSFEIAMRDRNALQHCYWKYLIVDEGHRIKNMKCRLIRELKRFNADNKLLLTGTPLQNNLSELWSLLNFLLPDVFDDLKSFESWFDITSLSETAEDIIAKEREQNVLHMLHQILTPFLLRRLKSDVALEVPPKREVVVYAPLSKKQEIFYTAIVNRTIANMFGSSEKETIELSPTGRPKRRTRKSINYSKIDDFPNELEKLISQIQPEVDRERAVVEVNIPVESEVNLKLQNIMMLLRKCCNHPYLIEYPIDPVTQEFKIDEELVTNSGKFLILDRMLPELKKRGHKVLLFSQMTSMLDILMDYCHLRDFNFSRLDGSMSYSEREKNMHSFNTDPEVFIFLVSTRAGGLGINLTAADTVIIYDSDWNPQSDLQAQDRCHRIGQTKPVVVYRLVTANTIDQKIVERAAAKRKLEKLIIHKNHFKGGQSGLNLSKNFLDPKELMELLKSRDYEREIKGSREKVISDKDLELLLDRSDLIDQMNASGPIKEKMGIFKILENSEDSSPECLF
UniProt P17483: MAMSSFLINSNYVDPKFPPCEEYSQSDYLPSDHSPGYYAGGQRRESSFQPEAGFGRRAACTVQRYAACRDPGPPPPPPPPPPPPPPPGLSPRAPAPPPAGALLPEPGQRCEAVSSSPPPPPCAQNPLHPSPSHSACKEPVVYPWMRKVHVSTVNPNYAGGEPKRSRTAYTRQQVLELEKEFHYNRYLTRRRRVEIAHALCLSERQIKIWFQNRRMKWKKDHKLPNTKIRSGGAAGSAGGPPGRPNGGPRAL
UniProt Q96MH2: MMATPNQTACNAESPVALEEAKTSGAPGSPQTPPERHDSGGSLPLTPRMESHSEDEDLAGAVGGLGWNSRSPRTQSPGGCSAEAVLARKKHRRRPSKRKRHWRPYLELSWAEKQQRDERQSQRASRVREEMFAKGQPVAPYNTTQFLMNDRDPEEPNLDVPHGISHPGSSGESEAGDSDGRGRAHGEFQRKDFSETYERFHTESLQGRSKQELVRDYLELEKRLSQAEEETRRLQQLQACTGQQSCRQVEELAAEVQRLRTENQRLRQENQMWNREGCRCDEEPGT
UniProt Q96JB3: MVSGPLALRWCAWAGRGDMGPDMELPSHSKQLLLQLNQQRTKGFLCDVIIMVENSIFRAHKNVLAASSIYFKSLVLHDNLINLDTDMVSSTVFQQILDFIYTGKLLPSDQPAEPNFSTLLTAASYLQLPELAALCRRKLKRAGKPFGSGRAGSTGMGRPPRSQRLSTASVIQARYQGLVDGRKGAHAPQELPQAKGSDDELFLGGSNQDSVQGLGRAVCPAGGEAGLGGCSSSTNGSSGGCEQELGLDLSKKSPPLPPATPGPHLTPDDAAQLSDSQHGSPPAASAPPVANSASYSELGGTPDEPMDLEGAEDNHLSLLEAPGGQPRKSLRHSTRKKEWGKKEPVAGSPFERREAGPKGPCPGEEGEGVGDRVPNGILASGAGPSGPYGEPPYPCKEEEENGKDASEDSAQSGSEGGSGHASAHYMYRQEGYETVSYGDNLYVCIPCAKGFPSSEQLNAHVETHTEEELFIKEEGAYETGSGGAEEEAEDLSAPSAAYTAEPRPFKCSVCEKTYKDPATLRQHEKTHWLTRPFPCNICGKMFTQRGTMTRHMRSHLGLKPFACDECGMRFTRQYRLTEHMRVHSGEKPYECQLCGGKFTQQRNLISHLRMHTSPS
UniProt P17096: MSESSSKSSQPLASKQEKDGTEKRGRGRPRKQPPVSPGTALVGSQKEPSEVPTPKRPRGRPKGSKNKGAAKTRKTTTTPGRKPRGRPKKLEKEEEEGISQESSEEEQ
UniProt P14210, whole entry, looked up: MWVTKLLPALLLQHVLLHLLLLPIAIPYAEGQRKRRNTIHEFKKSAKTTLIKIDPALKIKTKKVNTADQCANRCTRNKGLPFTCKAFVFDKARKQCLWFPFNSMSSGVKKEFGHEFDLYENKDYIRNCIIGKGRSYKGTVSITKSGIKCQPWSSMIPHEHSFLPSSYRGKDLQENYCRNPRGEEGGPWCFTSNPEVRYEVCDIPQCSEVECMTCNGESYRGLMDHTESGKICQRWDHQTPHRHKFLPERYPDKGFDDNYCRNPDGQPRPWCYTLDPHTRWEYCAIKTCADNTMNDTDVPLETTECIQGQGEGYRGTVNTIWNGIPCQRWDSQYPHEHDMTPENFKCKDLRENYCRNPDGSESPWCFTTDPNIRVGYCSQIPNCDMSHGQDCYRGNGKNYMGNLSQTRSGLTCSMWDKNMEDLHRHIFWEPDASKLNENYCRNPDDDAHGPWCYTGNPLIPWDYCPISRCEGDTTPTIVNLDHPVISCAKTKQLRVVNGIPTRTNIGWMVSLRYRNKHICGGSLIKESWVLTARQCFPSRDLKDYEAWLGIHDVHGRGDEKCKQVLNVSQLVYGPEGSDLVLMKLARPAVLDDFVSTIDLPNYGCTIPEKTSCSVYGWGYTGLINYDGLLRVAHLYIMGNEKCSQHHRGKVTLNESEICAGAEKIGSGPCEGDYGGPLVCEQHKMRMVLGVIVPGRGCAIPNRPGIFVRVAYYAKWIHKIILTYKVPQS
UniProt Q15034: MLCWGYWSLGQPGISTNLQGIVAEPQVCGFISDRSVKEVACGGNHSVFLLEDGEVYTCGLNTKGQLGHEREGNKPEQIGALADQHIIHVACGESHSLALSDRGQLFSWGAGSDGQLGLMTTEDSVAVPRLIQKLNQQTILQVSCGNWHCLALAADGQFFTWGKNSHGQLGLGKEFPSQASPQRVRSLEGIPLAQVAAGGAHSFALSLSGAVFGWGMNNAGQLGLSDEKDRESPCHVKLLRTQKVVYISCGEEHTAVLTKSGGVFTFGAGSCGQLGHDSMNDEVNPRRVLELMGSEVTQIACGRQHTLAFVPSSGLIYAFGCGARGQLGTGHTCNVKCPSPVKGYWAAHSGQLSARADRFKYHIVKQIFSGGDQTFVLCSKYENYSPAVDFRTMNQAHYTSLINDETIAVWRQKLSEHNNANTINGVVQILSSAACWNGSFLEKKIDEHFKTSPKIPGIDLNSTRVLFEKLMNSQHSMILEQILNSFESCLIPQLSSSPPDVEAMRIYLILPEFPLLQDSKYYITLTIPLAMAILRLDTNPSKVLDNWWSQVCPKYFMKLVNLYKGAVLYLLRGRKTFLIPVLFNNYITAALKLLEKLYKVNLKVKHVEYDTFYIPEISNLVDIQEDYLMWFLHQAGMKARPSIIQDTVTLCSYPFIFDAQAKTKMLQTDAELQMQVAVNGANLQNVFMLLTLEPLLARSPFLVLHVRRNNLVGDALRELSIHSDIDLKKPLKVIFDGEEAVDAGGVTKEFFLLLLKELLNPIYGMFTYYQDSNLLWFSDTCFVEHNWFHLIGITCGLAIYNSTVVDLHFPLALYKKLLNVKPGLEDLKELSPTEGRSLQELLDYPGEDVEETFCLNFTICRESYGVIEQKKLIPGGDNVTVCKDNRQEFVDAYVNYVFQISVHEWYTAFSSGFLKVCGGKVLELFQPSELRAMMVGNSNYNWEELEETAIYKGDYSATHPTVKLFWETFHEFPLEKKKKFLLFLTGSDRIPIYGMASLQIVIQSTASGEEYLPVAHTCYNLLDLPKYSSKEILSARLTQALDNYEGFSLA
UniProt Q9BW72: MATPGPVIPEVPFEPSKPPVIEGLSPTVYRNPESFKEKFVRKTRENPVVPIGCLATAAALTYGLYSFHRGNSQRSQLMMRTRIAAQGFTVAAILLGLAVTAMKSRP
UniProt Q03933: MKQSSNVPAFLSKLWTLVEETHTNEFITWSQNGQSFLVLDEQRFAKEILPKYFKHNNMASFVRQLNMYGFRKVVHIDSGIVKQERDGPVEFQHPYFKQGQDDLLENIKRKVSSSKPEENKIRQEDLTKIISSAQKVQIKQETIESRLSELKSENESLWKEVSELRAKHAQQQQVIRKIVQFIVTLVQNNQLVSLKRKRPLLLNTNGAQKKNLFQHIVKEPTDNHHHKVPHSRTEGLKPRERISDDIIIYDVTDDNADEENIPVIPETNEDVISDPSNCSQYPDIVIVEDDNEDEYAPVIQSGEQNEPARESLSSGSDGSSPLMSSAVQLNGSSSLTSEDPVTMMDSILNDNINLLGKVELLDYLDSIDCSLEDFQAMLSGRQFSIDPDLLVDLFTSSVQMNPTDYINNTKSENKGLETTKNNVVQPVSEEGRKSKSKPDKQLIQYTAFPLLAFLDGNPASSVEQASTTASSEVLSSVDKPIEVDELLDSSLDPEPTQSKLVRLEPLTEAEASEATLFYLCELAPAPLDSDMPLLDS
UniProt Q15011: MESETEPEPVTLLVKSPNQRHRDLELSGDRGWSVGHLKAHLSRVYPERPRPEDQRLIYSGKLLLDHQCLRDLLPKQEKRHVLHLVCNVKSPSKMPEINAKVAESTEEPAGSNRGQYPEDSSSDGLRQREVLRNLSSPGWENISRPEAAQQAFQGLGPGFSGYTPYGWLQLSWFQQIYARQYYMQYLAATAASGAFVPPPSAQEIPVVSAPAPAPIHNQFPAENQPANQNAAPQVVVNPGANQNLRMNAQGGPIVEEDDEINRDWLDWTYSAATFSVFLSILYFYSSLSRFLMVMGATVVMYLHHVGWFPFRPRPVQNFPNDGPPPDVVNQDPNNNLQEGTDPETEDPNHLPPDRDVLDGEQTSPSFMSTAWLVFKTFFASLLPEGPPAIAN
UniProt P50135: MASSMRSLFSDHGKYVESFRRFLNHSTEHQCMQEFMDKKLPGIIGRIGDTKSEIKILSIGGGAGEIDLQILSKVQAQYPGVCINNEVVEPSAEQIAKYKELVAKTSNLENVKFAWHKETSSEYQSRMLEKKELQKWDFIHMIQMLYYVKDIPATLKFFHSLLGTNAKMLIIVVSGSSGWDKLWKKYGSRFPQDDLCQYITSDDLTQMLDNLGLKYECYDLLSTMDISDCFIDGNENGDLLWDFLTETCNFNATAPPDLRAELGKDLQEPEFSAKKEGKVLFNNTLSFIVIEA
UniProt P13747, whole entry, looked up: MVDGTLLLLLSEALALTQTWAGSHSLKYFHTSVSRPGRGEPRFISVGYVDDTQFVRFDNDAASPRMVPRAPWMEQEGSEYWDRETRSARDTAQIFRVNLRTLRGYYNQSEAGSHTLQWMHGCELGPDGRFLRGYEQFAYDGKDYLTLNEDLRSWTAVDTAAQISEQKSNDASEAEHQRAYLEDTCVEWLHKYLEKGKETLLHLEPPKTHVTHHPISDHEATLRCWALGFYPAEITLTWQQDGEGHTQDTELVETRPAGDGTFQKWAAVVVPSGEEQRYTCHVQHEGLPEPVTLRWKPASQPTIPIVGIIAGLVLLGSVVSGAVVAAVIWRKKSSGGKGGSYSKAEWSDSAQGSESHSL

Compound: O=C1NC(=O)C(c2cnc3ccccn23)=C1c1cn2c3c(cc(F)cc13)CN(C(=O)N1CCCCC1)CC2
Experiment: log2 fold change, soluble protein after heating vs DMSO (PISA); higher = thermal stabilisation; K562 lysate, 10 uM; active = over 0.2 and 3.5 SD of the protein, either way, in both replicates (recomputed)
How it was run: (§1)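 Thermal stability, expressed as log-two fold change relative to solvent controls, is given from duplicates. Crude K562 extract in PBS pH 7.4 with 1 mM MgCl2, at 1 mg/mL protein, was treated with 10 μM compound for 30 min and heated in aliquots for 3 min across 48°C-58°C. After pooling, adjustment to 0.5% NP-40 at 4°C and centrifugation at 21,000xg for 90 min, supernatant protein was measured by TMTpro 16plex LC-MS/MS with channel sums equalised.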

log2 fold change, inactive:
HNRNPM (UniProt M0QZM1) 0.038, HPS6 (UniProt Q86YV9) 0.087, HMGN3 (UniProt Q15651) 0.036, HSP90AA2P (UniProt Q14568) -0.041, HELLS (UniProt Q9NRZ9) -0.068, HOXB4 (UniProt P17483) -0.014, HRAS (UniProt P01112) -0.017, HEXIM2 (UniProt Q96MH2) -0.149, HIC2 isoform 2 (UniProt Q96JB3) -0.005, HMGA1 isoform 2 (UniProt P17096) 0.128, HINFP (UniProt Q9BQA5) 0.077, HGF (UniProt P14210) -0.044, HERC3 (UniProt Q15034) -0.025, HOMER3 (UniProt Q9NSC5) -0.022, HNRNPD (UniProt D6RF44) -0.04, HIGD2A (UniProt Q9BW72) 0.095, HMGCR isoform 3 (UniProt P04035) -0.019

Compound: c1cn2cc(-c3ccc4cn[nH]c4c3)nc(Nc3ccc(N4CCOCC4)cc3)c2n1 [entospletinib]
Experiment: as above
How it was run: as §1

log2 fold change, inactive:
HMGXB3 (UniProt Q12766) -0.045, HNRNPM (UniProt M0QZM1) 0, HPS6 (UniProt Q86YV9) -0.021, HSF2 (UniProt Q03933) 0.005, HERPUD1 (UniProt Q15011) -0.183, HMGN5 (UniProt Q5JSK9) -0.187, HSP90AA2P (UniProt Q14568) -0.132, HNMT (UniProt P50135) 0.059, HELLS (UniProt Q9NRZ9) 0.087, HOXB4 (UniProt P17483) -0.053, HRAS (UniProt P01112) -0.051, HERC3 (UniProt Q15034) -0.12, HES1 (UniProt Q14469) 0.05, HLA-E (UniProt P13747) -0.029, HLA-DRA -0.069, HPGD (UniProt P15428) -0.113, HMGCR isoform 3 (UniProt P04035) -0.122
